Data: PubChem BioAssay AID2685 (National Center for Advancing Translational Sciences (NCATS), 2010)
Among all 320,000 compounds or so, about 2,100 (0.66%) were called active. Inconclusive results, whose numbers are uncertain, are shown with a selection of clear calls. The call rests on the fitted dose curve; in most records, active means well fitted inhibition curve with a large enough effect in the signal ratio, with a control signal flat (not every such curve was filed as active); inconclusive means small, poorly fitted or top-dose-only effect, or effect the other way, or a change in a side signal; inactive means flat fitted curve, though single readings scatter; the % refers to the signal ratio. Potencies beside an inconclusive call are fits to weak or partial responses and may not hold up.
On the % scale 0 is the no-effect control and ±100 the full control effect; potency means the concentration at half of the fitted maximal effect.

Assay: qHTS Assay for Lipid Storage Modulators in Drosophila S3 Cells
Details: BODIPY lipid droplet fluorescence, 18-24 h, cells fed with added oleic acid; lipid storage change, negative = inhibition: at 46.1 µM (top of the series) unless noted
Method in brief: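 Drosophila S3 cells loaded with oleic acid (400 uM, as added) and compounds at several concentrations; lipid droplets imaged by 488-nm laser-scanning cytometry, 500–530 nm intensity and object ratio to cell channel. Percent activity normalized to 20 uM Triacsin C.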
In the case of `COc1ccc(C2C(C(N)=O)=C(C)Nc3nc(-c4ccccc4OC)nn32)cc1OC` (centres undefined), the lipid storage change, negative = inhibition is reported as inconclusive: 12.9%. For `COc1ccc(O)c(C(=O)c2cc(C#N)c(=O)n(CC3CCCO3)c2)c1` (centres undefined), the lipid storage change, negative = inhibition was inconclusive: 82.1%. With `CC(=O)CCC(=O)NCCc1ccccc1F` the lipid storage change, negative = inhibition was inconclusive: -24.4%. For `CCCn1c2c(c(O)c(C(=O)Nc3nc(C)cs3)c1=O)CCCC2`, the lipid storage change, negative = inhibition was inconclusive: -22.6%. In the case of `CCOC(=O)C1(CC)NC(c2ccco2)C2C(=O)N(c3ccc(C)cc3)C(=O)C21` (centres undefined), the lipid storage change, negative = inhibition is reported as inconclusive: 30.4%. With `CC(=O)NC(=S)Nc1ccc(-c2nc3ccc(C)cc3s2)cc1` the lipid storage change, negative = inhibition was inconclusive: -14.2%. In the case of `Cc1csc(NC(=O)c2c(-c3ccccc3)noc2C)n1`, the Potency is reported as inconclusive: 0.103 µM [activator, full curve, poor fit]. In the case of `CC(C)N1C(=O)NC2(c3ccccc3)N(C)C(=O)N(C)C12c1ccccc1` (centres undefined), the lipid storage change, negative = inhibition is reported as inconclusive: -2.17%. With `CCC(CC)C(=O)NCc1ccc(OC)cc1` the Potency was inconclusive: 29.1 µM [falling, single point]. In the case of `CCN(CC)S(=O)(=O)c1ccc(C(=O)NCC2(N3CCOCC3)CCCCC2)cc1`, the lipid storage change, negative = inhibition is reported as inconclusive: 4.2%. With `O=C(N/N=C/c1ccc(OC2CSC2)cc1)c1ccccc1` the lipid storage change, negative = inhibition was inconclusive: -24%. In the case of `CCS(=O)(=O)N1CCC(NC(=O)c2cc(OC)cc(OC)c2)CC1`, the Potency is reported as inconclusive: 20.6 µM [falling, single point]. With `CC1(C)Cc2ccccc2C(CSc2ccccc2C(=O)O)=N1` the Potency was inconclusive: 32.6 µM [cytotoxic, single point]. With `CCC(C(=O)NCc1ccncc1)c1ccccc1` (centres undefined) the lipid storage change, negative = inhibition was inconclusive: -5.57%. In the case of `CCOC(=O)C(CC)(CCC(=O)O)c1csc(Nc2ccc(C)cc2)n1` (centres undefined), the lipid storage change, negative = inhibition is reported as inconclusive: 24.4%. For `CC(C)(C)OC(=O)N1CCC[C@H]1c1nnc(SCc2ccccc2)o1`, the “lipid storage change, negative = inhibition” value was inactive: 7.68%. For `CC(C)OCCCn1c(=O)c2ccccc2n2c(CCC(=O)N3CCN(c4ccccn4)CC3)nnc12`, the Potency was inconclusive: 0.231 µM [falling, full curve, poor fit]. In the case of `COc1ccc(N(C(=O)c2ccco2)C(C(=O)NC2CCCC2)c2ccccc2)cc1` (centres undefined), the lipid storage change, negative = inhibition is reported as inconclusive: -58.7%. For `COc1ccccc1NCCC(=O)OCC(=O)NC1CCCC(C)C1C` (centres undefined), the Potency was inconclusive: 14.6 µM [falling, partial curve, poor fit]. With `CN(CC(=O)NCC(=O)Nc1ccc(F)cc1)C1CCS(=O)(=O)C1` (centres undefined) the Potency was inconclusive: 18.4 µM [activator, single point]. For `COc1ccc(-c2c(C(=O)O)c(C(=O)O)c3n2CCC3)cc1`, the lipid storage change, negative = inhibition was inconclusive: -18%. With `Cc1ccc(CNC(=O)C2CCN(S(=O)(=O)c3cccnc3)CC2)cc1` the Potency was inconclusive: 14.6 µM [activator, partial curve]. With `CCCCNc1ccc(S(=O)(=O)c2cccc([N+](=O)[O-])c2)cc1[N+](=O)[O-]` the lipid storage change, negative = inhibition was inconclusive: 22.3%. In the case of `COc1cccc(S(=O)(=O)NCc2ccc(C(=O)NCc3ccccn3)cc2)c1`, the Potency is reported as inconclusive: 29.1 µM [falling, single point]. In the case of `CCOC(=O)COc1ccc(CCNC(C)=O)cc1`, the lipid storage change, negative = inhibition is reported as inconclusive: 16.9%. For `COCCNC(=O)CN(c1ccc(OC)c(OC)c1)S(=O)(=O)c1ccc(C)cc1`, the lipid storage change, negative = inhibition was inconclusive: 20.9%. For `c1ccc(-c2nn[nH]n2)nc1`, the lipid storage change, negative = inhibition was inconclusive: 32.8%. In the case of `O=C(CSc1ccc(-c2ccco2)nn1)Nc1ccc(F)cc1`, the lipid storage change, negative = inhibition is reported as inconclusive: 16.3%. For `CN(C)CCN(CC1CCCN(Cc2ccccc2F)C1)C(=O)c1ccc(F)cc1` (centres undefined), the lipid storage change, negative = inhibition was inconclusive: 21.9%. In the case of `O=C(CCN=C1NS(=O)(=O)c2ccccc21)Nc1ccc(Cl)cc1F`, the Potency is reported as inconclusive: 18.4 µM [falling, single point]. For `CC(=O)N1CCC2(CC1)C(C#N)=C(N)Oc1n[nH]c(CSc3ccc(C)cc3)c12`, the lipid storage change, negative = inhibition was inconclusive: 15.2%. For `CC(Oc1ccc(F)cc1)C(=O)Oc1ccc(N(C)S(=O)(=O)c2ccccc2)cc1` (centres undefined), the lipid storage change, negative = inhibition was “inconclusive”. For `CCC(C)Sc1ccc([C@@H]2[C@H]3C(=O)N(CC)C(=O)[C@H]3[C@]3(C(=O)OC)CCCN23)cc1OC` (some centres undefined), the lipid storage change, negative = inhibition was inconclusive: -4.01%. For `COCc1nnc(NC(=O)c2cccc(NC(=O)c3ccccc3)c2)s1`, the lipid storage change, negative = inhibition was inconclusive: 1.28%. For `CN(Cc1nc(-c2ccccc2)no1)C1CCOCC1`, the lipid storage change, negative = inhibition was inconclusive: 1.82%. In the case of `COc1ccc(OC)c(NC(=O)c2ccc(Cl)cc2)c1`, the lipid storage change, negative = inhibition is reported as inconclusive: -11.6%. With `COc1ccc(CCNC(=O)c2ccc(=O)[nH]c2)cc1` the Potency was inconclusive: 0.164 µM [cytotoxic, full curve, poor fit]. With `Cc1ccc(CS/C(Nc2ccccc2C)=C(\C#N)C(=O)NCc2ccco2)c(C)c1` the Potency was inconclusive: 29.1 µM [falling, single point]. In the case of `Cc1csc(=O)n1CCC(=O)OCC(=O)Nc1ccc(C(N)=O)cc1`, the lipid storage change, negative = inhibition is reported as inconclusive: 27% [at 0.0737 µM].
